According to PubChem BioAssay AID445 (National Center for Advancing Translational Sciences (NCATS), 2006):
The list shows a part of the results. These are further read-outs of the screen, such as a control signal, another cell line or another target. No call is given for them. Most of these compounds were active or inconclusive in the main read-out, so they are no random draw. The note in brackets gives the kind of curve behind each potency; many fits are weak.

assay: IkB Signaling; conditions: ABC-DLBCL IkBa-CBG/CBR dual luciferase ratio (green luciferase fused to IkBa over red control in OCI-Ly3 lymphoma cells), 4 h; measured here: control luc red channel unless noted
In short: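 Luminescence ratio of IκBα-fused green versus native red beetle luciferase in OCI-Ly3 cells, 4 h post-doxycycline with compound; red signal alone, scaled from basal (0%) to zero light (-100%), flagged nonspecific or cytotoxic effects.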

SMILES	AC50
Cc1ccc(C)c(NC(=O)N2CC=C(c3c[nH]c4ccccc34)CC2)c1	12.6 µM [falling, partial curve]
Cn1c(CSCc2ccc(Cl)c(Cl)c2)nnc1SCC(=O)Nc1nccs1	3.16 µM [falling, full curve]
CC#C[C@@]1(O)CC[C@@H]2[C@@H]3CCC4=CC(=O)CCC4=C3[C@@H](c3ccc(N(C)C)cc3)C[C@]21C	7.94 nM [rising, full curve] [measured here: IkB-luc green channel]
Cc1cccc(OCc2nnc(SCC(=O)OC3CCCCC3)o2)c1	25.1 µM [falling, single point]
COc1ccc(Nc2ccc3cc(S(=O)(=O)N4CCCC4)ccc3n2)cc1Cl	7.94 µM [rising, partial curve]
COc1ccccc1OCC(=O)N(Cc1ccc(N(C)C)cc1)CC1CCCO1 (stereo unspecified)	25.1 µM [falling, single point]
CCCCN(Cc1ccccc1)C(=O)CN(C)S(=O)(=O)c1ccc2c(c1)c(=O)n(C)c(=O)n2C	39.8 µM [falling, single point]
Cc1cccc(OCc2ccc(-c3nc(C#N)c(N4CCC(C(N)=O)CC4)o3)o2)c1	25.1 µM [falling, single point]
CCc1cc2c(cc3c(=O)n(CCCC(=O)NCc4ccccc4Cl)nc(CC)n32)s1	25.1 µM [falling, partial curve]
CCOC(=O)c1cccc(NC(=O)CC2C(=O)N(c3ccc(F)cc3)C(=O)N2C(C)C)c1 (stereo unspecified)	31.6 µM [falling, single point]
Cc1ccc(-c2nc3ncccc3o2)cc1NC(=O)COc1ccc(C(C)C)cc1	31.6 µM [falling, single point]
COc1ccc(NC(=O)C(Cc2ccccc2)NS(=O)(=O)c2ccc(Br)s2)cc1OC (stereo unspecified)	15.8 µM [falling, partial curve]
CS(=O)(=O)c1ccc(Cn2c3c(c4cc(F)cc(F)c42)CCC[C@H]3CC(=O)O)cc1	3.98 µM [falling, partial curve, poor fit]
Cc1ccc(C)c(N2CCN(C(=O)CCS(=O)(=O)c3cccc4nonc34)CC2)c1	10 µM [falling, partial curve]
COc1ccc(OC)c(CCNC(=O)c2cc3c(-c4ccccc4F)nn(C)c3s2)c1	12.6 µM [falling, partial curve]
COc1ccc(C)cc1NS(=O)(=O)c1ccc2c(c1)[C@H]1C=CC[C@H]1[C@@H](c1cccc(Cl)c1)N2	7.94 µM [falling, partial curve]

2 entries from above, in markdown:

| SMILES | AC50 |
| --- | --- |
| COc1ccc(Nc2ccc3cc(S(=O)(=O)N4CCCC4)ccc3n2)cc1Cl | 7.94 µM [rising, partial curve] |
| Cc1cccc(OCc2ccc(-c3nc(C#N)c(N4CCC(C(N)=O)CC4)o3)o2)c1 | 25.1 µM [falling, single point] |
